Drug screen on melanoma cell lines: apoptosis marker

Source: doi:10.1371/journal.pone.0140310, primary screening data, rounded.

All values are for the listed drug together with dasatinib (20 nM): Cc1nc(Nc2ncc(C(=O)Nc3c(C)cccc3Cl)s2)cc(N2CCN(CCO)CC2)n1

Compounds and concentrations:
bortezomib: CC(C)C[C@H](NC(=O)[C@H](Cc1ccccc1)NC(=O)c1cnccn1)B(O)O at 5 nM
AZD7762: NC(=O)Nc1cc(-c2cccc(F)c2)sc1C(=O)N[C@H]1CCCNC1 at 100 nM
bexarotene: C=C(c1ccc(C(=O)O)cc1)c1cc2c(cc1C)C(C)(C)CCC2(C)C at 10000 nM
ENMD-2076: Cc1cc(Nc2cc(N3CCN(C)CC3)nc(/C=C/c3ccccc3)n2)n[nH]1 at 200 nM
ruxolitinib: N#CC[C@H](C1CCCC1)n1cc(-c2ncnc3[nH]ccc23)cn1 at 5000 nM
sunitinib: CCN(CC)CCNC(=O)c1c(C)[nH]c(/C=C2\C(=O)Nc3ccc(F)cc32)c1C at 2000 nM
perifosine: CCCCCCCCCCCCCCCCCCOP(=O)([O-])OC1CC[N+](C)(C)CC1 at 2000 nM
GSK650394: O=C(O)c1ccc(-c2c[nH]c3ncc(-c4ccccc4)cc23)cc1C1CCCC1 at 800 nM
GW0742: Cc1cc(SCc2sc(-c3ccc(C(F)(F)F)c(F)c3)nc2C)ccc1OCC(=O)O at 10000 nM
T0901317: O=S(=O)(c1ccccc1)N(CC(F)(F)F)c1ccc(C(O)(C(F)(F)F)C(F)(F)F)cc1 at 7000 nM
dovitinib: CN1CCN(c2ccc3nc(-c4c(N)c5c(F)cccc5[nH]c4=O)[nH]c3c2)CC1 at 500 nM
fludarabine: Nc1nc(F)nc2c1ncn2[C@@H]1O[C@H](CO)[C@@H](O)[C@@H]1O at 1000 nM
GW441756: Cn1cc(/C=C2\C(=O)Nc3cccnc32)c2ccccc21 at 2000 nM
OSI-906: C[C@]1(O)C[C@@H](c2nc(-c3ccc4ccc(-c5ccccc5)nc4c3)c3c(N)nccn32)C1 at 2000 nM
temozolomide: Cn1nnc2c(C(N)=O)ncn2c1=O at 10000 nM

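Human melanoma cell lines in 1,536-well plates were treated with two drugs together for 72 h, then fixed, stained and imaged. Each value is the cleaved-PARP-positive fraction of nuclei relative to DMSO-treated wells, in %, so that 100 equals the control and higher values mean more apoptosis. Every drug was used at one fixed concentration, the higher of two screened. The file gives one value for each pair and line, without errors, so small differences may be noise. Basal and induced levels differ widely between cell lines.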 Only some of the drugs and lines screened are listed, without regard to their results.

Partner: dovitinib
COLO 800: 199
IST-MEL1: 108
COLO 829: 412
RVH-421: 133

Partner: ruxolitinib
COLO 800: 126
IST-MEL1: 89.6
COLO 829: 167
RVH-421: 160

Partner: T0901317
COLO 800: 164
IST-MEL1: 119
COLO 829: 86.1
RVH-421: 110

Partner: GW0742
COLO 800: 189
IST-MEL1: 110
COLO 829: 29.6
RVH-421: 618

Partner: bortezomib
COLO 800: 138
IST-MEL1: 1570
COLO 829: 2930
RVH-421: 1190

Partner: sunitinib
COLO 800: 75.7
IST-MEL1: 158
COLO 829: 133
RVH-421: 525

Partner: temozolomide
COLO 800: 89.7
IST-MEL1: 65.4
COLO 829: 203
RVH-421: 40.0

Partner: OSI-906
COLO 800: 187
IST-MEL1: 156
COLO 829: 191
RVH-421: 167

Partner: ENMD-2076
COLO 800: 122
IST-MEL1: 236
COLO 829: 177
RVH-421: 115

Partner: fludarabine
COLO 800: 95.4
IST-MEL1: 81.8
COLO 829: 183
RVH-421: 149

Partner: bexarotene
COLO 800: 71.5
IST-MEL1: 51.4
COLO 829: 431
RVH-421: 202

Partner: GW441756
COLO 800: 49.0
IST-MEL1: 77.5
COLO 829: 109
RVH-421: 334

Partner: AZD7762
COLO 800: 104
IST-MEL1: 56.3
COLO 829: 173
RVH-421: 209

Partner: GSK650394
COLO 800: 206
IST-MEL1: 92.7
COLO 829: 199
RVH-421: 244

Partner: perifosine
COLO 800: 191
IST-MEL1: 200
COLO 829: 138
RVH-421: 76.3

Repeated from the top, 2 entries:

Partner,COLO 800,IST-MEL1,COLO 829,RVH-421
dovitinib,199,108,412,133
ruxolitinib,126,89.6,167,160